Experimental findings from US20250304677A1 are described below.

Amino acid sequences for entries named in this document (tags omitted). A change or cut given only in a name is not applied to a line headed by its entry. Chains listed by the source or under a name are the forms on record and can include a tag or linker.
UniProt P15328: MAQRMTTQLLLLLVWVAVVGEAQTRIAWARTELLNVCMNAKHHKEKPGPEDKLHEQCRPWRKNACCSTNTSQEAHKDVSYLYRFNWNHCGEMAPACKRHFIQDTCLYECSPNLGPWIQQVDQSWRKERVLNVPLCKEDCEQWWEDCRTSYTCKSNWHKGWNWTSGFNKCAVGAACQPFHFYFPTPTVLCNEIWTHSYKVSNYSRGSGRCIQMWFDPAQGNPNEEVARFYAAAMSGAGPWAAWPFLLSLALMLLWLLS
UniProt P35846: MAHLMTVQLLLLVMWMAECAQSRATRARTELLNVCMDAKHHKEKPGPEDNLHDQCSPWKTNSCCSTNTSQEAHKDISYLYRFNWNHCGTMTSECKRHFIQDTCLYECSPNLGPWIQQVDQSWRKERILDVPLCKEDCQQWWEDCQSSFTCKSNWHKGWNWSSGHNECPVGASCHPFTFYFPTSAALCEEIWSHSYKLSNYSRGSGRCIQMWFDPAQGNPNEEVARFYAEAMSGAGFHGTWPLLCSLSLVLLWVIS
rhesus monkey folate receptor alpha, recombinant (F7BP60, form named): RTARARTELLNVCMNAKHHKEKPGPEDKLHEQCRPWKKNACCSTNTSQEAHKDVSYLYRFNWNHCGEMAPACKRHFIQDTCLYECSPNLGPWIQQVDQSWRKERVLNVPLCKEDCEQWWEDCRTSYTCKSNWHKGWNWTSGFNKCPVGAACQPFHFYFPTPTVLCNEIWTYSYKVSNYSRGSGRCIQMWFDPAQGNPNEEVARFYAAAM

The target in assay [1] is human FOLR1/2 chimera 1c (replacing fragment 51-64) (human) (UniProt P15328). Kind of assay: flow cytometry, transfected HEK293T cells. Background: Flow cytometry measures light scatter and fluorescence of single cells or particles in a stream.
The target in assay [2] is mouse folate receptor alpha (mFRα), recombinant protein (mouse) (UniProt P35846). Kind of assay: BLI tandem binning on biotinylated mouse FRα.
Assay [3] deals with recombinant human FRα (29-234), deglycosylated, for co-crystallization (human) (UniProt P15328). The experiment in a line: co-crystal structure, 2.8 Å.
The target in assay [4] is human folate receptor alpha (hFRα), recombinant protein (human) (UniProt P15328). The experiment in a line: BLI off-rate screening, crude periplasmic extract, biotinylated human FRα on streptavidin biosensors.
In assay [5] the target is mouse folate receptor alpha (mFRα), recombinant protein (mouse) (UniProt P35846). The experiment in a line: BLI off-rate screening, crude periplasmic extract, biotinylated mouse FRα on streptavidin biosensors.
The target of assay [6] is recombinant human FRα (29-234), deglycosylated, for co-crystallization (human) (UniProt P15328). The experiment in a line: co-crystal structure, 2.23 Å.
Assay [7] has the same target. Kind of assay: co-crystal structure, 3.09 Å.
In assay [8] the target is rhesus monkey folate receptor alpha, recombinant (rhesus monkey) (UniProt F7BP60). The experiment in a line: ELISA.

Results are given in words; binding and its absence hold for the method and conditions named. Some results given as binding are weak or reduced against the parent protein; the word gives no strength. For part of these data: Sequences can lack the tags named with a protein.

B1: VHH 3MFR60 (family 10) (VHH)
VHH: QVQLQESGGGLVQAGGSLRVSCAASGIIFSMNGMGWFRQAPGKQRELVASITSGGSTKYADSVKGRFTISRDNAKNTVYLQMNSLKPEDTAVYYCNIQFGSRWSTYWGQGTQVTVSS
For B1, the binding result in assay [1] is recorded as “binds”.

B2: VHH 2MFR32 (VHH)
VHH: QVQLQESGGGLVQAGGSLRVSCAASGFPFSTVYMSWVRQAPGKGLEWVSGINSNGGVIDYADSVKGRFTISRDNANNTLYLQLNSLKPEDTALYFCAKGRAFVATMPSSLRGQGTQVTVSS
On to B2, for which the binding result in assay [2] is recorded as “binds”.

B3: VHH 2HFO19 (family 1) (VHH)
VHH: QVQLQESGGGLVQPGGSLRVSCAASGFPFSTVYMSWVRQAPGKGLEWVSGINNDGGVIDYADSVKGRFTISRDNAKNTLYLQLNSLKPEDTALYFCARGRSFVATLSSSLRGQGTQVTVSS
Regarding B3, the binding result in assay [1] is listed as “binds”.

B4: P01500003: 2HF019(Q1E, Q5V, Q108L)-HIS6 (VHH)
VHH: EVQLVESGGGLVQPGGSLRVSCAASGFPFSTVYMSWVRQAPGKGLEWVSGINNDGGVIDYADSVKGRFTISRDNAKNTLYLQLNSLKPEDTALYFCARGRSFVATLSSSLRGQGTLVTVSS
In the case of B4, in assay [3], the binding entry is listed as “binds”.

B5: [N73A] (VHH)
VHH: EVQLVESGGGLVQPGGSLRLSCAASGSGFSGMIMGWYRQAPGKQRELVATVTSHGTTNYADSVKGRFTISRDAAKNTVYLQMNSLRPEDTAVYYCNAHFPGIYWGKGTLVTVSS
B5: the binding result in assay [4] and in assay [5] was “binds” each time.

B6: [S30V] (VHH)
VHH: EVQLVESGGGLVQPGGSLRLSCAASGSGFVGMIMGWYRQAPGKQRELVATVTSHGTTNYADSVKGRFTISRDNAKNTVYLQMNSLRPEDTAVYYCNAHFPGIYWGKGTLVTVSS
As for B6, the binding entry in assay [4] and in assay [5] was “binds” each time.

B7: [V51Q] (VHH)
VHH: EVQLVESGGGLVQPGGSLRLSCAASGSGFSGMIMGWYRQAPGKQRELVATQTSHGTTNYADSVKGRFTISRDNAKNTVYLQMNSLRPEDTAVYYCNAHFPGIYWGKGTLVTVSS
Regarding B7, the binding entry in assay [4] and in assay [5] was “binds” each time.

B8: [K75V] (VHH)
VHH: EVQLVESGGGLVQPGGSLRLSCAASGSGFSGMIMGWYRQAPGKQRELVATVTSHGTTNYADSVKGRFTISRDNAVNTVYLQMNSLRPEDTAVYYCNAHFPGIYWGKGTLVTVSS
For B8, the binding entry in assay [4] and in assay [5] was “binds” in each case.

B9: P01500004: 2HF042(Q1E, Q5V, Q108L)-HIS6 (VHH)
VHH: EVQLVESGGGLVQAGGSLRLSCAASGSGFSGMIMGWYRQVPGKQRELVATVTSHGTTNYADSVKGRFTISRDNAKNTVLLQMNSLKPEDTAVYYCNAHFPGIYWGKGTLVTVSS
In the case of B9, the binding entry in assay [6] is “binds”.

B10: [G26Q] (VHH)
VHH: EVQLVESGGGLVQPGGSLRLSCAASQSGFSGMIMGWYRQAPGKQRELVATVTSHGTTNYADSVKGRFTISRDNAKNTVYLQMNSLRPEDTAVYYCNAHFPGIYWGKGTLVTVSS
Take B10: the binding result in assay [4] and in assay [5] was “binds” throughout.

B11: [N58K] (VHH)
VHH: EVQLVESGGGLVQPGGSLRLSCAASGSGFSGMIMGWYRQAPGKQRELVATVTSHGTTKYADSVKGRFTISRDNAKNTVYLQMNSLRPEDTAVYYCNAHFPGIYWGKGTLVTVSS
As for B11, the binding entry in assay [4] and in assay [5] was “binds” throughout.

B12: P01500005: 2MFR67(Q1E, Q5V, Q108L)-HIS6 (VHH)
VHH: EVQLVESGGGLVQAGGSLRLSCAASGSGFSGMIMGWYRQAPGKQRELVATVTSHGTTNYADSVKGRFTISREDSKNTVLLQMNSLKPEDTAVYYCNAHFPGIYWGKGTLVTVSS
Consider B12, for which the binding entry in assay [7] is “binds”.

B13: [T50V] (VHH)
VHH: EVQLVESGGGLVQPGGSLRLSCAASGSGFSGMIMGWYRQAPGKQRELVAVVTSHGTTNYADSVKGRFTISRDNAKNTVYLQMNSLRPEDTAVYYCNAHFPGIYWGKGTLVTVSS
Take B13: the binding result in assay [4] and in assay [5] was “binds” each time.

B14: [N73Q] (VHH)
VHH: EVQLVESGGGLVQPGGSLRLSCAASGSGFSGMIMGWYRQAPGKQRELVATVTSHGTTNYADSVKGRFTISRDQAKNTVYLQMNSLRPEDTAVYYCNAHFPGIYWGKGTLVTVSS
Consider B14, for which the binding result in assay [4] and in assay [5] was “binds” throughout.

B15: [S30E] (VHH)
VHH: EVQLVESGGGLVQPGGSLRLSCAASGSGFEGMIMGWYRQAPGKQRELVATVTSHGTTNYADSVKGRFTISRDNAKNTVYLQMNSLRPEDTAVYYCNAHFPGIYWGKGTLVTVSS
As to B15, the binding entry in assay [4] and in assay [5] was “binds” throughout.

B16: VHH 2HFO42 (family 3) (VHH)
VHH: QVQLQESGGGLVQAGGSLRLSCAASGSGFSGMIMGWYRQVPGKQRELVATVTSHGTTNYADSVKGRFTISRDNAKNTVLLQMNSLKPEDTAVYYCNAHFPGIYWGKGTQVTVSS
Turning to B16, the binding result in assay [8] and in assay [1] was “binds” throughout.

B17: [I33K] (VHH)
VHH: EVQLVESGGGLVQPGGSLRLSCAASGSGFSGMKMGWYRQAPGKQRELVATVTSHGTTNYADSVKGRFTISRDNAKNTVYLQMNSLRPEDTAVYYCNAHFPGIYWGKGTLVTVSS
For the molecule B17, the binding entry in assay [4] and in assay [5] was “binds” each time.

B18: [G26N] (VHH)
VHH: EVQLVESGGGLVQPGGSLRLSCAASNSGFSGMIMGWYRQAPGKQRELVATVTSHGTTNYADSVKGRFTISRDNAKNTVYLQMNSLRPEDTAVYYCNAHFPGIYWGKGTLVTVSS
For the molecule B18, the binding entry in assay [4] and in assay [5] was “binds” throughout.

B19: [G28K] (VHH)
VHH: EVQLVESGGGLVQPGGSLRLSCAASGSKFSGMIMGWYRQAPGKQRELVATVTSHGTTNYADSVKGRFTISRDNAKNTVYLQMNSLRPEDTAVYYCNAHFPGIYWGKGTLVTVSS
On to B19, for which the binding result in assay [4] and in assay [5] was “binds” each time.

B20: [I33R] (VHH)
VHH: EVQLVESGGGLVQPGGSLRLSCAASGSGFSGMRMGWYRQAPGKQRELVATVTSHGTTNYADSVKGRFTISRDNAKNTVYLQMNSLRPEDTAVYYCNAHFPGIYWGKGTLVTVSS
As for B20, the binding result in assay [4] and in assay [5] was “binds” each time.

B21: [D72Y] (VHH)
VHH: EVQLVESGGGLVQPGGSLRLSCAASGSGFSGMIMGWYRQAPGKQRELVATVTSHGTTNYADSVKGRFTISRYNAKNTVYLQMNSLRPEDTAVYYCNAHFPGIYWGKGTLVTVSS
With B21, the binding result in assay [4] and in assay [5] was “binds” each time.

B22: [K75D] (VHH)
VHH: EVQLVESGGGLVQPGGSLRLSCAASGSGFSGMIMGWYRQAPGKQRELVATVTSHGTTNYADSVKGRFTISRDNADNTVYLQMNSLRPEDTAVYYCNAHFPGIYWGKGTLVTVSS
On to B22, for which the binding entry in assay [4] and in assay [5] was “binds” in each case.

B23: [T50S] (VHH)
VHH: EVQLVESGGGLVQPGGSLRLSCAASGSGFSGMIMGWYRQAPGKQRELVASVTSHGTTNYADSVKGRFTISRDNAKNTVYLQMNSLRPEDTAVYYCNAHFPGIYWGKGTLVTVSS
In the case of B23, the binding result in assay [4] and in assay [5] was “binds” in each case.

B24: [S30D] (VHH)
VHH: EVQLVESGGGLVQPGGSLRLSCAASGSGFDGMIMGWYRQAPGKQRELVATVTSHGTTNYADSVKGRFTISRDNAKNTVYLQMNSLRPEDTAVYYCNAHFPGIYWGKGTLVTVSS
For B24, the binding entry in assay [4] and in assay [5] was “binds” in each case.

B25: [V51T] (VHH)
VHH: EVQLVESGGGLVQPGGSLRLSCAASGSGFSGMIMGWYRQAPGKQRELVATTTSHGTTNYADSVKGRFTISRDNAKNTVYLQMNSLRPEDTAVYYCNAHFPGIYWGKGTLVTVSS
Turning to B25, the binding entry in assay [4] and in assay [5] was “binds” throughout.

B26: [G26D] (VHH)
VHH: EVQLVESGGGLVQPGGSLRLSCAASDSGFSGMIMGWYRQAPGKQRELVATVTSHGTTNYADSVKGRFTISRDNAKNTVYLQMNSLRPEDTAVYYCNAHFPGIYWGKGTLVTVSS
In the case of B26, the binding entry in assay [4] and in assay [5] was “binds” in each case.

B27: [F29K] (VHH)
VHH: EVQLVESGGGLVQPGGSLRLSCAASGSGKSGMIMGWYRQAPGKQRELVATVTSHGTTNYADSVKGRFTISRDNAKNTVYLQMNSLRPEDTAVYYCNAHFPGIYWGKGTLVTVSS
Take B27: the binding result in assay [4] and in assay [5] was “binds” each time.
